Measurements reported in publication PMC3701561.
Results are given in words; binding and its absence hold for the method and conditions named. A result given as binding can be weak or reduced; the word gives no strength.

What was measured:
Assay in all cases: two-hybrid; yeast AH109; BnaMPKs in pGBKT7, BnaMKKs and BnaWRKYs (whole or truncated) in pGADT7; growth on SD-LTHA, dilution series, X-gal colony-lift staining
[1] = target: BnaMPK2 (Brassica napus) (UniProt S4TFE6)
[2] = target: BnaMPK20 (Brassica napus) (UniProt S4TFK4)
[3] = target: BnaMPK9 (Brassica napus) (UniProt Q5XU40)
[4] = target: BnaMPK6 (Brassica napus) (UniProt S4TFE7)
[5] = target: BnaMPK1 (Brassica napus) (UniProt S4TFK2)
[6] = target: BnaMPK3 (Brassica napus) (UniProt S4TG54)
[7] = target: BnaMPK5 (Brassica napus)
[8] = target: BnaMPK19 (Brassica napus) (UniProt S4TFP8)

| Substance | binding [1] | binding [2] | binding [3] | binding [4] | binding [5] | binding [6] | binding [7] | binding [8] |
| --- | --- | --- | --- | --- | --- | --- | --- | --- |
| BnaMKK1 (from UniProt S4TFE4) | no binding | no binding | no binding | binds | no binding | binds | no binding |  |
| BnaMKK2 (from UniProt S4TFK1) | no binding | no binding | no binding | binds | no binding | binds | no binding |  |
| BnaMKK4 (from UniProt S4TFY8) | no binding | no binding | no binding | binds | no binding | binds | no binding | no binding |
| BnaMKK5 (from UniProt S4TFZ1) | no binding | no binding | no binding | binds | no binding | binds | no binding | no binding |
| BnaMKK9 (from UniProt S4TFE5) | binds | binds | binds | no binding | binds | no binding | binds | binds |
